Results as given in publication PMC6868374.
Results are given in words; binding and its absence hold for the method and conditions named. Binding seen in cells or lysates may run through a third protein. Some results given as binding are weak or reduced against the parent protein; the word gives no strength.

T1: ZAR2 (Zar1-like, ZAR1L), mouse (mouse) (UniProt C3VD30)
T1 sequence: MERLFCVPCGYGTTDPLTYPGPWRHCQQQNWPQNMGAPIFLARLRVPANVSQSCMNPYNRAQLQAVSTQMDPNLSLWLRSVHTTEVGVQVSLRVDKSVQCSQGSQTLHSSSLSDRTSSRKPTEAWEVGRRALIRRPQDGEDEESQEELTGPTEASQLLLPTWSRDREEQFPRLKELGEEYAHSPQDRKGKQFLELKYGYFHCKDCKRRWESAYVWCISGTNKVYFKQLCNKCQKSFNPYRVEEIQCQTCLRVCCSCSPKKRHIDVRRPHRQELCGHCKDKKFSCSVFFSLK

T2: ZAR1 (zygote arrest-1), mouse (mouse) (UniProt Q80SU3)
T2 sequence: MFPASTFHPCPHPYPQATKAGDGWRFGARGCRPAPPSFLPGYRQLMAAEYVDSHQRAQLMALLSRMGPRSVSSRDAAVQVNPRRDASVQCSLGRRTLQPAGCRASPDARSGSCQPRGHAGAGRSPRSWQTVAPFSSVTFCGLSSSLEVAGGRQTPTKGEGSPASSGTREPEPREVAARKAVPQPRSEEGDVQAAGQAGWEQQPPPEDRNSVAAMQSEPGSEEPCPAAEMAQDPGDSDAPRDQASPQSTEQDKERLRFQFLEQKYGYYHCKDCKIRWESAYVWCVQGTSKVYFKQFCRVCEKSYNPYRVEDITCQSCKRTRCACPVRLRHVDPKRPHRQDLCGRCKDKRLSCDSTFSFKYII


Legend:
[1] = biological target: T1, ZAR2 (Zar1-like, ZAR1L), mouse (mouse); assay: co-IP; proteins co-expressed in HeLa cells for 48 h; lysis in 50 mM Tris-HCl pH 7.5, 150 mM NaCl, 10% glycerol, 0.5% NP-40; immunoprecipitation with affinity gels (Sigma) for 4 h at 4°C; western blot
[2] = biological target: T2, ZAR1 (zygote arrest-1), mouse (mouse); assay: as above
[3] = biological target: T1, ZAR2 (Zar1-like, ZAR1L), mouse (mouse); assay: co-IP; as a1, proteins co-expressed in HeLa cells, with RNase A treatment
[4] = biological target: T2, ZAR1 (zygote arrest-1), mouse (mouse); assay: as above

Row | binding [1] | binding [2] | binding [3] | binding [4] | Binder
1 | binds | binds | binds | binds | PADI6 (protein, UniProt Q6TGC4 1-694) MVSVEGRAMSFQSIIHLSLDSPVHAVCVLGTEICLDLSGCAPQKCQCFTIHGSGRVLIDVANTVISEKEDATIWWPLSDPTYATVKMTSPSPSVDADKVSVTYYGPNEDAPVGTAVLYLTGIEVSLEVDIYRNGQVEMSSDKQAKKKWIWGPSGWGAILLVNCNPADVGQQLEDKKTKKVIFSEEITNLSQMTLNVQGPSCILKKYRLVLHTSKEESKKARVYWPQKDNSSTFELVLGPDQHAYTLALLGNHLKETFYVEAIAFPSAEFSGLISYSVSLVEESQDPSIPETVLYKDTVVFRVAPCVFIPCTQVPLEVYLCRELQLQGFVDTVTKLSEKSNSQVASVYEDPNRLGRWLQDEMAFCYTQAPHKTTSLILDTPQAADLDEFPMKYSLSPGIGYMIQDTEDHKVASMDSIGNLMVSPPVKVQGKEYPLGRVLIGSSFYPSAEGRAMSKTLRDFLYAQQVQAPVELYSDWLMTGHVDEFMCFIPTDDKNEGKKGFLLLLASPSACYKLFREKQKEGYGDALLFDELRADQLLSNGREAKTIDQLLADESLKKQNEYVEKCIHLNRDILKTELGLVEQDIIEIPQLFCLEKLTNIPSDQQPKRSFARPYFPDLLRMIVMGKNLGIPKPFGPQIKGTCCLEEKICCLLEPLGFKCTFINDFDCYLTEVGDICACANIRRVPFAFKWWKMVP
2 | binds | binds | binds | binds | MATER (protein, UniProt P59047 1-1200) MKVAGGLELGAAALLSASPRALVTLSTGPTCSILPKNPLFPQNLSSQPCIKMEGDKSLTFSSYGLQWCLYELDKEEFQTFKELLKKKSSESTTCSIPQFEIENANVECLALLLHEYYGASLAWATSISIFENMNLRTLSEKARDDMKRHSPEDPEATMTDQGPSKEKVPGISQAVQQDSATAAETKEQEISQAMEQEGATAAETEEQEISQAMEQEGATAAETEEQGHGGDTWDYKSHVMTKFAEEEDVRRSFENTAADWPEMQTLAGAFDSDRWGFRPRTVVLHGKSGIGKSALARRIVLCWAQGGLYQGMFSYVFFLPVREMQRKKESSVTEFISREWPDSQAPVTEIMSRPERLLFIIDGFDDLGSVLNNDTKLCKDWAEKQPPFTLIRSLLRKVLLPESFLIVTVRDVGTEKLKSEVVSPRYLLVRGISGEQRIHLLLERGIGEHQKTQGLRAIMNNRELLDQCQVPAVGSLICVALQLQDVVGESVAPFNQTLTGLHAAFVFHQLTPRGVVRRCLNLEERVVLKRFCRMAVEGVWNRKSVFDGDDLMVQGLGESELRALFHMNILLPDSHCEEYYTFFHLSLQDFCAALYYVLEGLEIEPALCPLYVEKTKRSMELKQAGFHIHSLWMKRFLFGLVSEDVRRPLEVLLGCPVPLGVKQKLLHWVSLLGQQPNATTPGDTLDAFHCLFETQDKEFVRLALNSFQEVWLPINQNLDLIASSFCLQHCPYLRKIRVDVKGIFPRDESAEACPVVPLWMRDKTLIEEQWEDFCSMLGTHPHLRQLDLGSSILTERAMKTLCAKLRHPTCKIQTLMFRNAQITPGVQHLWRIVMANRNLRSLNLGGTHLKEEDVRMACEALKHPKCLLESLRLDCCGLTHACYLKISQILTTSPSLKSLSLAGNKVTDQGVMPLSDALRVSQCALQKLILEDCGITATGCQSLASALVSNRSLTHLCLSNNSLGNEGVNLLCRSMRLPHCSLQRLMLNQCHLDTAGCGFLALALMGNSWLTHLSLSMNPVEDNGVKLLCEVMREPSCHLQDLELVKCHLTAACCESLSCVISRSRHLKSLDLTDNALGDGGVAALCEGLKQKNSVLARLGLKACGLTSDCCEALSLALSCNRHLTSLNLVQNNFSPKGMMKLCSAFACPTSNLQIIGLWKWQYPVQIRKLLEEVQLLKPRVVIDGSWHSFDEDDRYWWKN
